Data published in patent publication US10246497 (dated 2019).

Assay: general procedure: Fmoc solid-phase peptide synthesis; Tentagel RAM (Rapp Polymere) or Rink amide ChemMatrix; DIC / Oxyma Pure in NMP; PyBOP/DIPEA for 16-sulfonic hexadecanoic acid
Conditions: whole synthesis, UPLC-AP-01, scale of the general procedure 0.25 mmol or 0.4 mmol

Substance: [Trp30]hPYY(3-36)
- final HPLC purity: 96.6%
